In the supplement of paper PMC3334620:
The full ranking holds about 33,000 sequences; the median of “E-score (-0.5 to 0.5)” is about -8e-05, and the highest 2% start at about 0.23. This is one part of the list.

Molecular target: T1, Nrg2 (UniProt P38082)
T1 sequence: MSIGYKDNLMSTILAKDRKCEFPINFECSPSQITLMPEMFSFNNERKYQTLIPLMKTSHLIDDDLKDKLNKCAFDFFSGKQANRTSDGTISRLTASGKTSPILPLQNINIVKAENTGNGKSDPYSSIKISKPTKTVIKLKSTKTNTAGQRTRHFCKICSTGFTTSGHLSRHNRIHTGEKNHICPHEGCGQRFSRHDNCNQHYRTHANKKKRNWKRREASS
Assay: PBM E-score (8-mer binding enrichment) (E-score (-0.5 to 0.5)); higher = stronger / more preferred TF binding
Conditions: protein concentration: 100 nM; construct: GST-full length
Outline: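 Yeast transcription factors carrying a GST tag, as full-length proteins or DNA-binding domains, were produced by PURExpress in vitro transcription/translation. About 100-200 nM protein was applied to universal all-10-mer Agilent arrays, double-stranded by primer extension on fresh or once-stripped slides. Bound protein was detected with fluorescent anti-GST, and scans were normalised with masliner. The Universal PBM Analysis Suite gave each ungapped eight-base word, pooled with its reverse complement, an E-score, a modified Wilcoxon-Mann-Whitney statistic.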

Sequence | PBM E-score
CTGCTGAA | -0.201
AGGGGTCG | 0.0876
GACCAGCC | -0.0527
AACACTAT | 0.252
AGTGTCAC | -0.0785
AGAGTAAG | 0.132
CCGTGCAA | 0.0358
GGATGACC | -0.0893
TGAGACAA | -0.00496
AAGGCACT | -0.111
CCTTGAAA | 0.0296
GAACCATA | 0.0868
ATGCGGTG | -0.162
ATAAGCAA | 0.149
TGAGTACA | 0.13
CCCTATGA | -0.028
CCATTGCG | -0.0449
TCATTGGA | 0.0781
CTCATTAA | 0.173
TGATGAAA | 0.0875
GCAGGAAA | 0.0944
AGTCTCTA | -0.115
AATTAGTA | 0.23
CGAAGAAC | -0.0662
CTCAGTTA | 0.0608

Sequence | PBM E-score
CCGGTAGC | -0.234
CTCTCTCC | -0.195
CGGTCGAG | -0.155
GTGCGAGA | 0.106
CTCCCTGC | -0.0805
ATTGCACG | 0.141
GAGGACGA | 0.0657
ACACCTCG | 0.014
GGTGCAAC | -0.13
GAGTCGGA | -0.0232
ACGCCGAG | 0.0717
AGCTCGCG | 0.156
CACGACCG | -0.195
AGGACGCG | -0.111
AAAAGACG | -0.0148
ACGTCTGC | -0.0969
ACAAGTTA | 0.0352
AGCTTATG | 0.0706
CTGGCAAG | -0.127
CAGTAGAG | -0.221
ATTATCTC | 0.195
TAAGGAAA | -0.0344
AGAGCCGG | -0.209
CGGTTCGA | 0.188
ATTGTTAC | 0.165

Exported with each value named: part of the list above
CTCCCTGC
  PBM E-score = -0.0805
GGTGCAAC
  PBM E-score = -0.13
AGCTCGCG
  PBM E-score = 0.156
AGGACGCG
  PBM E-score = -0.111

Further entries follow:

Sequence | PBM E-score
GGCTGGTA | -0.0211
CCGATTCC | 0.00489
AGTTGTGC | 0.0129
AGGTGCAG | -0.0039
CCATCGGG | -0.0901
ATACTGGC | 0.0697
AACGTGGT | -0.119
GATCCACC | -0.161
GAATTCTC | -0.00666
AGAGCCCA | -0.0955
ATGAAGAA | 0.025
GCTCATAC | -0.00494
GAAAGCCC | 0.0882
CTGCGGTC | 0.0351
TATGACGA | -0.0603
ATCAAGCA | 0.0485
AGTCTATG | -0.111
ATCCATAG | -0.12
CCTTAAAA | 0.0445
CCAGTATA | -0.00867
ACCTGAAT | 0.172
CCCAATGC | -0.161
CCCTGGTC | 0.0217
GTAATTTA | 0.089
GCGCGGAC | 0.127

Sequence | PBM E-score
CGTTTTAA | 0.0715
ACCAAAGG | -0.142
ATCGAACA | 0.217
CTAACTCA | -0.011
CTAGATTC | -0.0731
GCGTTCGA | 0.159
ACATTTTA | 0.0835
CGGATGGC | 0.0447
ACTCCACA | 0.0471
CTACTCAC | 0.0755
ATTCGGGC | -0.044
AACGGTTG | 0.038
GAGTATAA | 0.145
TCCCTAAA | 0.0662
ACGAATTA | 0.1
AGACGGAA | -0.0774
AAAGTGAA | 0.157
AAGTGACT | -0.236
CCTGGTGA | -0.0401
CAATCTCC | 0.0119
AACCCGAC | -0.00418
CCCGCCAA | -0.175
AGCCCAAA | 0.0891
GGCGCAAA | 0.14
GCCAGAGC | -0.162

Sequence | PBM E-score
CGGGCGGC | -0.0587
ACAGCAGT | -0.0888
AGAGGGAC | -0.0381
CGTGGGTC | 0.0321
AAACTCAA | 0.117
CGAAGCGA | -0.0324
ATGTTTCC | -0.0231
CCCTTTCG | 0.0725
AACTTCAC | 0.194
AGTTCTAG | -0.0512
AGGCTAGC | -0.223
ATGTAACG | -0.0338
AACTGGGG | 0.0723
CAGCCAAG | -0.0194
ATACTACC | 0.0168
AAAGACAC | 0.0428
CGTCAGCC | -0.0208
ATAATACA | 0.282
CGAACAAC | 0.152
ATAGTCCG | -0.149
GATGGGCC | -0.0607
GATGAACC | -0.0336
GATGGCTA | -0.0352
TGAACACA | -0.00911
TAAGAGAA | 0.0551

Reformatted as a markdown table: entries from further up.

| Sequence | PBM E-score |
| --- | --- |
| ATAATACA | 0.282 |
| CGAACAAC | 0.152 |
| ATAGTCCG | -0.149 |

Remaining list, next part.

Sequence | PBM E-score
AGTCATAG | -0.00021
ATAGGTAC | 0.127
CTTTCGAA | 0.00871
AGACCATG | -0.148
ACCTAGGG | 0.0541
AAACTAGA | -0.0323
CTCTACTC | 0.0129
AATTCCCA | -0.0117
GTTAGAGA | -0.209
AGAACTTA | 0.046
CTGCTAAA | -0.0803
CGTGGCGC | -0.101
AGTTACAT | 0.0124
GCGGGACA | -0.104
ATATCACA | -0.031
AAACGTAA | 0.0997
CAAGGGAC | 0.261
CACGGGTA | -0.0681
AGATGGTA | 0.0502
AGCGTCTG | -0.119
ATCGTTCC | -0.194
TATTCAGA | 0.0498
ACCCTTAG | 0.123
CTTAGCGC | 0.201
CAGTAAGG | 0.0543

Sequence | PBM E-score
AGAACGAC | -0.0328
AAACGAAT | 0.0286
GGACCGCC | -0.0968
ACCGTGCT | -0.171
AGTATTGG | 0.0226
CAGGTATG | -0.0355
TCGGATCA | 0.0657
CTCCTGAC | 0.0802
CGCTCGAC | -0.129
TACCAATA | 0.0341
AAAAAGCA | -0.0586
GAGTTCAC | -0.0228
AAAGGATG | 0.0449
CCACATAG | -0.0377
AAAGTCAC | -0.113
CCCCCTAA | -0.257
TCACTACA | 0.24
AAAGTCCG | 0.021
CCCGTTCG | -0.0552
ACCTCCAT | -0.164
AGACTGAA | -0.0653
AACTTGGT | 0.0862
